PubChem BioAssay AID2417 (National Center for Advancing Translational Sciences (NCATS), 2010)
About 4,300 (3.1%) of roughly 140,000 compounds were called active. The shares of active, inactive and inconclusive entries below differ from those in the screen.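 Rule for the calls: active = readout at or below -70, meaning at least 70% loss of cells showing the perinucleolar compartment, a nuclear body marking cancer cells; inconclusive = readout between -30 and a set limit; inactive = the rest.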

Assay: High Content Assay for Compounds that inhibit the Assembly of the Perinucleolar Compartment;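 note: plate controls were DMSO wells for no effect and camptothecin positive control wells for full effect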
Conditions: PC3M PTB-GFP, PNC prevalence imaging, 16 h; at 10 µM; stronger effect = lower value
How it was run: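 Compounds are pinned in duplicate onto adhered PC3M cells stably expressing GFP-tagged PTB and incubated 16 h at 37 C. Cells are then fixed, nuclei stained with Hoechst, and PNC-positive cells counted.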

| Compound | activity change (PNC), negative = inhibition |
| --- | --- |
| CCN(CC)S(=O)(=O)c1cc(C(=O)NC2CCCCC2)ccc1C | inconclusive: -33.7% |
| CC(=O)c1ccc(N2CCN(C(C)C(=O)NC3CCCc4ccccc43)CC2)cc1 (stereo not given) | inconclusive: -43.7% |
| Cc1ccc(CNC(=O)CSc2c3c(nc4cc(Cl)ccc24)CCCC3)o1 | inconclusive: -42.8% |
| Cc1ccc(Nc2nnc(-c3ccc(N4CCOCC4)c([N+](=O)[O-])c3)c3ccccc23)cc1 | inconclusive: -50.6% |
| Cc1ccccc1CNS(=O)(=O)c1ccc2c(c1)OCCO2 | active: -119% |
| COCCn1c(C)cc(/C=C2/NC(=O)N(c3ccc(Cl)cc3)C2=O)c1C | active: -114% |
| NC(=O)N/N=C/c1cc(Br)ccc1OC(=O)c1ccccc1 | active: -81% |
| Cc1ccc2nc(-c3ccc(N4C(=N)SC5CS(=O)(=O)CC54)cc3)sc2c1 (stereo not given) | inconclusive: -35.8% |
| Fc1ccc(Nc2ncnc3sc4c(c23)CCC4)cc1F | inconclusive: -46.9% |
| COC(=O)Cc1c[nH]c2cccc(OCC(O)CN(Cc3ccccc3)C(C)C)c12 (stereo not given) | active: -80% |
| O=C(Nc1cccnc1)c1ccc(COc2ccccc2Cl)o1 | inactive: -1.73% |
| CC/C(O)=C1\C(=O)CC(c2ccccc2)CC1=NCCC(=O)O (stereo not given) | inconclusive: -35.2% |
| COC(=O)Cn1cc(C(=O)OC)c2ccccc21 | inconclusive: -70.8% |
| COc1ccccc1C(=O)Nc1ccccc1N1CCN(S(C)(=O)=O)CC1 | active: -90.9% |
| Cn1ccnc1SCc1cc(=O)[nH]c2ccccc12 | inconclusive: -52.9% |
| COc1ccc(S(=O)(=O)N2CCCN(CC(=O)Nc3ccc4c(c3)OCO4)CC2)cc1 | inactive: 47.3% |
| CCCCCC(=O)NNC(=S)NC(=O)c1cccc([N+](=O)[O-])c1 | inactive: 14.3% |
| COc1ccccc1/C=N/NC(=O)c1cccc(OC(F)(F)C(F)F)c1 | inconclusive: -40.6% |
| CCOc1c(Br)cc(/C=C2/SC(=O)N(CC(=O)N3CCCC3)C2=O)cc1OC | inactive: 18.5% |
| O=c1oc2ccccc2cc1-c1csc(Nc2nc3c(F)cccc3s2)n1 | inconclusive: -37.6% |
| O=C(CN1C(=O)NC(Cc2ccccc2)C1=O)Nc1ccccc1 (stereo not given) | inconclusive: -78% |
| Cc1ccc(NC(=O)CCC(=O)NNC(=O)C(c2ccccc2)c2ccccc2)c(C)c1 | inconclusive: -50.2% |
| COc1ccc(C2NC(=O)CS2)cc1 (stereo not given) | active: -100% |
| O=C(Nc1nnc(CCS(=O)(=O)c2ccc(Br)cc2)s1)c1ccc([N+](=O)[O-])cc1 | inactive: -12.2% |
| CCn1cc(C(=O)NCc2cccnc2)c(=O)c2cc(F)c(N3CCN(C(=O)c4ccco4)CC3)cc21 | inconclusive: -34% |

Some of the entries above in a different format.
Compound	activity change (PNC), negative = inhibition
COc1ccccc1C(=O)Nc1ccccc1N1CCN(S(C)(=O)=O)CC1	active: -90.9%
O=C(Nc1nnc(CCS(=O)(=O)c2ccc(Br)cc2)s1)c1ccc([N+](=O)[O-])cc1	inactive: -12.2%
